{"source": "PubChem BioAssay AID1259405 | NCATS, 2018", "purpose": "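Silenced genes that increase secreted GFP made by CHO cells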 (primary screen)", "system": "Chinese hamster CHO-K1 ovary cells with stable secreted eGFP expression", "reagents": "single siRNA against mouse genes, 0.8 pmol siRNA per well (2 µl of 400 nM stock)", "duration": "3 days", "detection": "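Per-well intracellular GFP measured by laser scanning cytometry, plus viability from ATP luminescence, each relative to plate median of non-targeting control wells, in %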", "scale": "GFP, % of control: higher = more GFP per well, higher productivity; viability (ATP), % of control: higher = more viable cells (more ATP)", "hit rule": "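Called active when intracellular GFP, relative to negative control, is at or above 120%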", "note": "Here is a random part of about 50,000 reagents. Of all reagents, about 4,000 (8%) got an active call. 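Mouse siRNA library applied to hamster cells; one well for each siRNA.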 Entries without a mark were called inactive. The numbers tell different reagents against one gene apart."}
{"target gene": "Barhl1", "reagent": 1, "GFP, % of control": 46, "viability (ATP), % of control": 35.2}
{"target gene": "Barhl1", "reagent": 2, "GFP, % of control": 90.1, "viability (ATP), % of control": 84.9}
{"target gene": "Barhl1", "reagent": 3, "GFP, % of control": 56.3, "viability (ATP), % of control": 76.6}
{"target gene": "Htr2a", "reagent": 1, "GFP, % of control": 68.3, "viability (ATP), % of control": 75}
{"target gene": "Htr2a", "reagent": 2, "GFP, % of control": 66.9, "viability (ATP), % of control": 72.4}
{"target gene": "Htr2a", "reagent": 3, "GFP, % of control": 66, "viability (ATP), % of control": 79.4}
{"target gene": "Acvrl1", "reagent": 1, "GFP, % of control": 68.8, "viability (ATP), % of control": 91.9}
{"target gene": "Htr4", "reagent": 1, "GFP, % of control": 45.5, "viability (ATP), % of control": 40.3}
{"target gene": "Htr4", "reagent": 2, "GFP, % of control": 54, "viability (ATP), % of control": 75.5}
{"target gene": "Htr4", "reagent": 3, "GFP, % of control": 70.9, "viability (ATP), % of control": 69.6}
{"target gene": "Ift81", "reagent": 1, "GFP, % of control": 97.5, "viability (ATP), % of control": 108}
{"target gene": "Ift81", "reagent": 2, "GFP, % of control": 64.2, "viability (ATP), % of control": 72.2}
{"target gene": "Ift81", "reagent": 3, "GFP, % of control": 80.8, "viability (ATP), % of control": 98.6}
{"target gene": "Or4f14d", "reagent": 1, "GFP, % of control": 81, "viability (ATP), % of control": 75.4}
{"target gene": "Or4f14d", "reagent": 2, "GFP, % of control": 76.1, "viability (ATP), % of control": 83.6}
{"target gene": "Or4f14d", "reagent": 3, "GFP, % of control": 53.2, "viability (ATP), % of control": 92.2}
{"target gene": "Acvr1b", "reagent": 1, "GFP, % of control": 104, "viability (ATP), % of control": 87.4}
{"target gene": "Slc6a14", "reagent": 1, "GFP, % of control": 85.2, "viability (ATP), % of control": 74.3}
{"target gene": "Slc6a14", "reagent": 2, "GFP, % of control": 66.7, "viability (ATP), % of control": 76.3}
{"target gene": "Slc6a14", "reagent": 3, "GFP, % of control": 60.8, "viability (ATP), % of control": 67.8}
{"target gene": "Cep250", "reagent": 1, "GFP, % of control": 86.7, "viability (ATP), % of control": 81.8}
{"target gene": "Cep250", "reagent": 2, "GFP, % of control": 109, "viability (ATP), % of control": 85.7}
{"target gene": "Cep250", "reagent": 3, "GFP, % of control": 113, "viability (ATP), % of control": 104}
{"target gene": "Nup43", "reagent": 1, "GFP, % of control": 21.1, "viability (ATP), % of control": 20.7}
{"target gene": "Nup43", "reagent": 2, "GFP, % of control": 71.7, "viability (ATP), % of control": 76.6}
{"target gene": "Nup43", "reagent": 3, "GFP, % of control": 86.8, "viability (ATP), % of control": 55.3}
{"target gene": "Selp", "reagent": 1, "GFP, % of control": 75.4, "viability (ATP), % of control": 79.4}
{"target gene": "Selp", "reagent": 2, "GFP, % of control": 55.5, "viability (ATP), % of control": 49}
{"target gene": "Or6c219", "reagent": 1, "GFP, % of control": 110, "viability (ATP), % of control": 83.6}
{"target gene": "Or6c219", "reagent": 2, "GFP, % of control": "139 (active)", "viability (ATP), % of control": 58}
{"target gene": "Or6c219", "reagent": 3, "GFP, % of control": 87.3, "viability (ATP), % of control": 90.1}
{"target gene": "Bdnf", "reagent": 1, "GFP, % of control": 37, "viability (ATP), % of control": 52.2}
{"target gene": "Bdnf", "reagent": 2, "GFP, % of control": 72.9, "viability (ATP), % of control": 81.3}
{"target gene": "Bdnf", "reagent": 3, "GFP, % of control": 58.8, "viability (ATP), % of control": 58.9}
{"target gene": "Cnnm3", "reagent": 1, "GFP, % of control": 75.6, "viability (ATP), % of control": 106}
{"target gene": "Cnnm3", "reagent": 2, "GFP, % of control": 105, "viability (ATP), % of control": 85.1}
{"target gene": "Cnnm3", "reagent": 3, "GFP, % of control": 44.8, "viability (ATP), % of control": 96.4}
{"target gene": "Eogt", "reagent": 1, "GFP, % of control": "123 (active)", "viability (ATP), % of control": 120}
{"target gene": "Eogt", "reagent": 2, "GFP, % of control": 70.5, "viability (ATP), % of control": 64.3}
{"target gene": "Eogt", "reagent": 3, "GFP, % of control": 77.3, "viability (ATP), % of control": 75.5}
{"target gene": "Eepd1", "reagent": 1, "GFP, % of control": 110, "viability (ATP), % of control": 88.1}
{"target gene": "Eepd1", "reagent": 2, "GFP, % of control": 118, "viability (ATP), % of control": 77.6}
{"target gene": "Eepd1", "reagent": 3, "GFP, % of control": 73.3, "viability (ATP), % of control": 68.7}
{"target gene": "AW209491", "reagent": 1, "GFP, % of control": 46.3, "viability (ATP), % of control": 57.3}
{"target gene": "AW209491", "reagent": 2, "GFP, % of control": 89.5, "viability (ATP), % of control": 89.1}
{"target gene": "AW209491", "reagent": 3, "GFP, % of control": 53.3, "viability (ATP), % of control": 73.9}
{"target gene": "Lamb3", "reagent": 1, "GFP, % of control": 91, "viability (ATP), % of control": 105}
{"target gene": "Lamb3", "reagent": 2, "GFP, % of control": 64, "viability (ATP), % of control": 81.1}
{"target gene": "Mapkapk2", "reagent": 1, "GFP, % of control": 68, "viability (ATP), % of control": 74.6}
{"target gene": "Mapkapk2", "reagent": 2, "GFP, % of control": 52.7, "viability (ATP), % of control": 31.1}
{"target gene": "Mapkapk2", "reagent": 3, "GFP, % of control": 101, "viability (ATP), % of control": 96.1}
{"target gene": "Or52d3", "reagent": 1, "GFP, % of control": 87.6, "viability (ATP), % of control": 83.4}
{"target gene": "Or52d3", "reagent": 2, "GFP, % of control": 79.2, "viability (ATP), % of control": 74.8}
{"target gene": "Or52d3", "reagent": 3, "GFP, % of control": 30, "viability (ATP), % of control": 48.7}
